# Laboratory results: PubChem BioAssay AID651768 (National Center for Advancing Translational Sciences (NCATS), 2012)
# Sequences of proteins named here, by UniProt entry; tags and fusion partners are left off.
# UniProt Q14191, whole entry, looked up: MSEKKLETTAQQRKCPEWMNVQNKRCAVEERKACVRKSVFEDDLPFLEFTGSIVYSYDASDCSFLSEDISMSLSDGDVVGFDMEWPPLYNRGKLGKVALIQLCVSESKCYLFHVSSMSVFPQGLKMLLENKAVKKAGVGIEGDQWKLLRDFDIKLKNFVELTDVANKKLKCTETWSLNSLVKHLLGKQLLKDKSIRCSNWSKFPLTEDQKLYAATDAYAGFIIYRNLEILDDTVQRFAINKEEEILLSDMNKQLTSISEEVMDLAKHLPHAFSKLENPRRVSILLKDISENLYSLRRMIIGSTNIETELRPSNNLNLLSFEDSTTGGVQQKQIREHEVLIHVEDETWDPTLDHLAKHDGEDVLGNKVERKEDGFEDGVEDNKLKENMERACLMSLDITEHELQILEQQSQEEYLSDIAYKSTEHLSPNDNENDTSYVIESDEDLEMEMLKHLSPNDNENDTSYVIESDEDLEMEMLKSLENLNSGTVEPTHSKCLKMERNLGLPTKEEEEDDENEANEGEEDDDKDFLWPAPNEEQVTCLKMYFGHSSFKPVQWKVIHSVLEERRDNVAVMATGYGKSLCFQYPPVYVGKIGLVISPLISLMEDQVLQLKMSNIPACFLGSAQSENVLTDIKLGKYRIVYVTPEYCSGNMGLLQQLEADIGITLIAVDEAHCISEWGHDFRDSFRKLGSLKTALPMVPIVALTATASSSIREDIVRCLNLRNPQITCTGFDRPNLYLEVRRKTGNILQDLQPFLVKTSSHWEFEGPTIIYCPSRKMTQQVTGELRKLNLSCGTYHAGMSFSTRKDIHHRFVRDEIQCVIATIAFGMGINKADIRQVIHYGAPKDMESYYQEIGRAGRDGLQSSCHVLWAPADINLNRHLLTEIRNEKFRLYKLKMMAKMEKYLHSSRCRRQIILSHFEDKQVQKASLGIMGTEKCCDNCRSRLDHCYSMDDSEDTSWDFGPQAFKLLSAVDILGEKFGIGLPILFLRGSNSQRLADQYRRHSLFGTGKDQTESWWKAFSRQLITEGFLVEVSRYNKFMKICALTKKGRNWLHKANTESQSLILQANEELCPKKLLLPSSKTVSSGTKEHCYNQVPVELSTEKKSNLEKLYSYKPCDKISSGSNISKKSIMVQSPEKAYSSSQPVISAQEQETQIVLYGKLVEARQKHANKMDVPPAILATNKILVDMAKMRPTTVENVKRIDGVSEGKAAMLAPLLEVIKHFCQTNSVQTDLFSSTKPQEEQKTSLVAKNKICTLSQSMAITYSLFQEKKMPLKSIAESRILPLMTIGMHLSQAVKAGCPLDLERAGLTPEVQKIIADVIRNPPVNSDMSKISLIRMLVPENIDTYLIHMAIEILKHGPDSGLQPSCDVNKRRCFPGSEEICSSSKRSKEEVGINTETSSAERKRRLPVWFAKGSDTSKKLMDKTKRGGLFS
# Hit rate of the full screen: of about 360,000 compounds, about 1,700 (0.47%) were called active. This list was built around the results that the source calls inconclusive (neither active nor inactive); the mix of calls is not that of the screen. Calls come from the whole dose curve; as a rule, active = well fitted inhibition curve with a large enough effect; inconclusive = small, poorly fitted or top-dose-only effect; inactive = no such curve, though single readings can be large or run the other way. Potencies beside an inconclusive call are fits to weak or partial responses and may not hold up.
# Target: Bifunctional 3'-5' exonuclease/ATP-dependent helicase WRN (Homo sapiens) (UniProt Q14191)
# Assay: qHTS for Inhibitors of WRN Helicase; note: nearly all actives have a fitted effect of over 55% in size
# Settings: WRN helicase unwinding, fluorescent forked duplex, kinetic; series mostly up to 114 µM
# Method in brief: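 Enzyme (20 nM final) and test compound sit together 15 min at room temperature before substrate addition. Substrate is a single-forked duplex oligonucleotide (100 nM) labelled with fluorophore and quencher, with 2 mM ATP; helicase unwinding raises red fluorescence, read kinetically.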
# Potency is the fitted concentration of half-maximal effect.
row,SMILES,Potency
1,CN(c1ccccc1)S(=O)(=O)c1cccc(NC(=O)Cc2ccc(Cl)cc2)c1,"inconclusive: 20 µM [inhibitor, single point]"
2,Oc1ccc2ccccc2c1/C=N/Nc1ccccc1,"inconclusive: 112 µM [inhibitor, partial curve, poor fit]"
3,C=CCn1c(SCC(=O)Nc2nnc(C)s2)nnc1C1CC1,inactive
4,Cc1ccc(-n2c(-c3ccccc3)n[nH]c2=S)cc1,inactive
5,Cc1ccc(S(=O)(=O)N(C)c2ccc(OCC(=O)OCc3cccc(Br)c3)cc2)cc1,inactive
6,O=C(NNc1nc(=O)c2cccnc2s1)c1ccccc1O,"inconclusive: 70.8 µM [inhibitor, single point]"
7,O=C(O)c1cccc(N2C(=O)c3ccc(Oc4ccc(Cl)cc4)cc3C2=O)c1,inactive
8,O=C1Nc2ccccc2/C1=N\N=C\c1ccc(O)c(O)c1,active: 31.6 µM
9,CC(CNCC1CCCO1)COc1ccccc1 (centres undefined),inactive
10,COc1ccc(NC(=O)C(NCC(C)C)c2ccccc2)cc1Cl (centres undefined),"inconclusive: 17.8 µM [inhibitor, single point]"
11,S=c1nc(-c2cc(Cl)cc(Cl)c2)[nH][nH]1,"inconclusive: 10 µM [inhibitor, full curve, poor fit]"
12,Oc1ccccc1N1CCN(c2ccc3ccccc3n2)CC1,inactive
13,COc1cccc2c1C(=O)c1c(O)c3c(c(O)c1C2=O)CC(O)(C(C)=O)CC3OC1CC(N(C)C)C(O)C(C)O1 (centres undefined),active: 17.8 µM
14,Cc1c(CCC(=O)O)c(=O)oc2cc3occ(-c4ccc(F)cc4)c3cc12,"inconclusive: 28.2 µM [inhibitor, full curve, poor fit]"
15,CCOC(=O)N1CCC(NC(=O)c2cnn3c2NC(c2ccco2)CC3C(F)(F)F)CC1 (centres undefined),"inconclusive: 56.2 µM [inhibitor, partial curve]"
16,CC1OC(OCC2OC(Oc3c(-c4ccc(O)cc4)oc4cc(O)cc(O)c4c3=O)C(O)C(O)C2O)C(O)C(O)C1O (centres undefined),"inconclusive: 79.4 µM [inhibitor, partial curve]"
17,Oc1ccc(N2CCN(Cc3cc4c(cc3Br)OCCO4)CC2)cc1,inactive
18,Cc1ccccc1Cc1n[nH]c(=S)n1N,"inconclusive: 11.2 µM [inhibitor, partial curve]"
19,NC(=S)N=Nc1c(O)n(Cc2ccc(Br)cc2)c2ccccc12,inactive
20,O=C(c1ccc(Br)s1)N1CCN(S(=O)(=O)c2ccccc2)CC1,"inconclusive: 89.1 µM [inhibitor, single point]"
21,COc1cccc2sc(Nc3nc(-c4cc5ccccc5oc4=O)cs3)nc12,"inconclusive: 22.4 µM [inhibitor, single point]"
22,CC1=NOC(=O)/C1=C/c1ccc(O)cc1,"inconclusive: 79.4 µM [inhibitor, partial curve]"
23,COc1cc(/C=N/NC(=O)c2ccc3c(c2)OCCO3)c(Br)c(Br)c1O,"inconclusive: 44.7 µM [inhibitor, partial curve]"

row,SMILES,Potency
1,CCOC(=O)C1=C(O)/C(=C/c2ccc(-c3ccccc3C(=O)O)o2)SC1=Nc1ccc(OC)cc1,"inconclusive: 79.4 µM [inhibitor, partial curve]"
2,O=[N+]([O-])c1cc2oc3c(c2c(C=NCc2ccncc2)c1O)CCCC3,"inconclusive: 44.7 µM [inhibitor, partial curve]"
3,CC1=NN(c2ccccc2)C(=O)/C1=C/c1c(O)n(-c2ccc(F)cc2)[nH]c1=O,"inconclusive: 44.7 µM [inhibitor, partial curve]"
4,COC(=O)Cc1ccccc1NS(=O)(=O)c1ccc(C)cc1,inactive
5,Clc1ccccc1CSc1nnc(-c2ccco2)c(-c2ccco2)n1,active: 50.1 µM
6,COc1ccc(S(=O)(=O)N2C(=O)/C(=C3\SC(N)=NC3=O)c3ccccc32)cc1,"inconclusive: 28.2 µM [inhibitor, single point]"
7,NS(=O)(=O)c1ccc(N=Nc2ccc(=O)[nH]c2O)cc1,active: 50.1 µM
8,CN(CC(=O)Nc1c(Cl)cccc1Cl)C(=O)Cc1ccsc1,inactive
9,Nc1c(/C=C2/C=CC(=O)C(O)=C2)c(=O)nc2sc(CC(=O)N3CCCC3)nn12,active: 39.8 µM
10,COC(=O)c1cc(NS(=O)(=O)c2ccc(N3CCOCC3)c(N)c2)cc(C(=O)OC)c1,"inconclusive: 39.8 µM [inhibitor, single point]"
11,C/C(=N\NC(=O)c1cc(O)ccc1O)c1cccc(NC(=O)c2ccc(Cl)cc2)c1,active: 39.8 µM
12,COc1cc(/C=C2\SC(c3ccccc3)=NC2=O)cc(Cl)c1O,"inconclusive: 70.8 µM [inhibitor, single point]"
13,CS(=O)(=O)Nc1ccc(-c2ccc(/C=C3\SC(N)=NC3=O)o2)cc1,"inconclusive: 79.4 µM [inhibitor, partial curve]"
14,O=C(CCCN1C(=O)c2ccccc2C1=O)Nc1sc2c(c1C(=O)NCc1ccco1)CCC2,inactive
15,CCOc1cc(/C=C2\SC(=S)N(C(C(=O)O)c3ccccc3)C2=O)ccc1O (centres undefined),active: 56.2 µM
16,CCOC(=O)/C(C#N)=C/c1c[nH]c2ccccc12,"inconclusive: 22.4 µM [inhibitor, single point]"
17,CCOC(=O)C1C(=O)C=C(/C=C/c2ccc(N(C)C)cc2)CC1c1ccccc1 (centres undefined),active: 50.1 µM
18,CNc1nc(Sc2ccc(C)cc2)cc(C(F)(F)F)n1,inactive
19,COc1ccc(-c2cn(-c3ccc(Cl)cc3)c3[n+]2CCCCC3)cc1,"inconclusive: 3.16 µM [inhibitor, full curve, poor fit]"
20,CN(c1ccc(OCC(=O)Nc2cc(Cl)ccc2C(=O)O)cc1)S(=O)(=O)c1ccc(F)cc1,"inconclusive: 8.91 µM [inhibitor, full curve]"
21,Cc1ccc(S(=O)(=O)NCCc2nnc3ccc(SCC(=O)Nc4nc(C)cs4)nn23)cc1,"inconclusive: 28.2 µM [inhibitor, single point]"
22,Oc1c(Br)cc(Cl)cc1C=Nc1ccc(N2CCOCC2)cc1,"inconclusive: 70.8 µM [inhibitor, single point]"
23,O=C(O)c1cc2ncc(-c3[nH]ncc3[N+](=O)[O-])cn2n1,"inconclusive: 17.8 µM [inhibitor, single point]"

# 3 compounds from above, ordered by count of non-hydrogen atoms, ascending.
row,SMILES,Potency
7,NS(=O)(=O)c1ccc(N=Nc2ccc(=O)[nH]c2O)cc1,active: 50.1 µM
5,Clc1ccccc1CSc1nnc(-c2ccco2)c(-c2ccco2)n1,active: 50.1 µM
9,Nc1c(/C=C2/C=CC(=O)C(O)=C2)c(=O)nc2sc(CC(=O)N3CCCC3)nn12,active: 39.8 µM

# Additional entries follow.

row,SMILES,Potency
1,Cc1ccc(C2OCC3(CO2)COC(c2ccc(C)cc2)OC3)cc1 (centres undefined),"inconclusive: 35.5 µM [inhibitor, single point]"
2,CC1=Nc2ccccc2/C1=C/c1c(N)n2c(S(=O)(=O)C(C)C)nsc2nc1=O,"inconclusive: 39.8 µM [inhibitor, single point]"
3,O=S(=O)(/N=S1\CC=CCN1S(=O)(=O)c1ccccc1)c1ccccc1 (centres undefined),active: 8.91 µM
4,CN(/C=C/C(=C\C=[N+](C)c1ccccc1)OCCCS(=O)(=O)[O-])c1ccccc1,inactive
5,Cc1ccc(NS(=O)(=O)c2ccc(C)c(NC(=O)COc3ccccc3)c2)c(C)c1,inactive
6,c1ccc(CN2CCN(CCOCCOc3ccc4c(c3)CCC4)CC2)cc1,"inconclusive: 35.5 µM [inhibitor, partial curve]"
7,COc1ccc2cc(CN(CCc3ccccc3)Cc3nnnn3Cc3ccco3)c(=O)[nH]c2c1,"inconclusive: 44.7 µM [inhibitor, partial curve]"
8,Cc1sc2nc(SCC(=O)Nc3cccc(S(N)(=O)=O)c3)[nH]c(=O)c2c1C,"inconclusive: 14.1 µM [inhibitor, full curve, poor fit]"
9,COc1cccc(/C=N/Nc2nn3cnnc3c3ccccc23)c1O,"inconclusive: 5.62 µM [inhibitor, full curve]"
10,Cc1ccc(C)c(N2C(=N)S/C(=C\c3ccc(-c4ccccc4C(=O)O)o3)C2=O)c1,"inconclusive: 8.91 µM [inhibitor, partial curve]"
11,CCCCc1nnc(NC(=O)CSc2nc(O)c(-c3ccccc3)c(=O)[nH]2)s1,inactive
12,CCc1noc(C)c1C(=O)N1CCN(S(=O)(=O)c2ccc(Br)cc2Cl)CC1,"inconclusive: 89.1 µM [inhibitor, single point]"
13,O=C(Nc1nnc(C2CC2)s1)C1Cc2ccccc2CN1S(=O)(=O)c1cccs1 (centres undefined),inactive
14,Cc1cc(/C=C(/C#N)c2nc3ccccc3[nH]2)c(C)n1-c1ccccc1C(=O)O,"inconclusive: 31.6 µM [inhibitor, partial curve]"
15,COc1ccc(NC(=O)CSc2ccc(-c3cccnc3)nn2)c(OC)c1,"inconclusive: 39.8 µM [inhibitor, full curve, poor fit]"
16,O=[N+]([O-])c1cccc2nc3ccccc3c(NCCCn3ccnc3[N+](=O)[O-])c12,"inconclusive: 11.2 µM [inhibitor, partial curve, poor fit]"
17,CNc1ccc(-c2cccc(CO)c2)cn1,inactive
18,COc1ccc(C)cc1Nc1n[n+](-c2ccccc2)c(-c2c(OC)ccc3ccccc23)s1,inactive
19,O=C(c1ccccc1)c1ccc(OCCOCCN2CCN(Cc3ccccc3)CC2)cc1,"inconclusive: 22.4 µM [inhibitor, full curve, poor fit]"
20,N=c1oc2cc(O)ccc2cc1C(=O)Nc1ccc(Cl)cc1,inactive
21,COc1ccc(NS(=O)(=O)c2cccc(C(=O)NNC(=O)CNC(=O)c3ccccc3)c2)cc1,"inconclusive: 79.4 µM [inhibitor, single point]"
22,CC(=O)C1=C(C)NC(SCC(=O)c2ccc(Cl)cc2)=C(C#N)C1c1ccco1 (centres undefined),"inconclusive: 39.8 µM [inhibitor, partial curve]"
23,COc1cc(/C=C2\SC(=S)N(NS(=O)(=O)c3ccccc3)C2=O)ccc1O,active: 50.1 µM
